Assay results: patent US20230276831A1, “Food/Beverage Article” (Kikkoman Corporation, priority 2020, published 2023)
Further values from the same series stand in other lists.

Experiments:
[1] = tested on: Lactobacillus rennini (DSM 20253); assay: Antimicrobial action of licoricidin in liquid dressing, lightly-pickled vegetables and cooking vinegar (Test Example 9); type: cell-based
Excerpt: Specifically, Koikuchi soy sauce (produced by Kikkoman Corporation), table vinegar, mirin, granulated sugar, kelp stock, and water were blended in amounts shown in the following Table 24, and the resulting mixture was heated to produce liquid dressing. The salt concentration of the obtained liquid dressing was 2.6% (w/v), the alcohol concentration was 0.8% (v/v), the pH was 4.2.
Specifically, Usukuchi soy sauce (produced by Kikkoman Corporation), table vinegar, corn syrup, isomerized sugar, salt, granulated sugar, sodium glutamate (MSG), lemon fruit juice, kelp stock, and water were blended in amounts shown in the following Table 25, and the mixture was heated to produce seasoning liquid for lightly-pickled vegetables. Chinese cabbages were fully soaked therein to produce lightly-pickled vegetables. The salt concentration of the obtained seasoning liquid for lightly-pickled vegetables was 3.1% (w/v), the alcohol concentration was 0.01% (v/v), and the pH was 4.4.
Specifically, table vinegar, salt, granulated sugar, lemon fruit juice, sodium glutamate (MSG), and water in amounts shown in following Table 26 were blended, and the mixture was heated to produce cooking vinegar. The salt concentration of the obtained cooking vinegar was 1.5% (w/v), the alcohol concentration was 0% (v/v), and the pH was 3.8.
Licoricidin (produced by ChemFaces) was added to each of the above-mentioned produced liquid dressing, lightly-pickled vegetables, and cooking vinegar to concentrations of 1 ppm, 5 ppm, 10 ppm, 25 ppm, and 50 ppm. Lactic acid bacteria (Lactobacillus rennini (DSM 20253)) were then added to 10^6 to 10^7 cells/mL. The bacteria were cultured in the liquid dressing and the lightly-pickled vegetables at 30° C. for 7 days, and the bacteria were cultured in the cooking vinegar at 30° C. for 3 days. After the culture, the number of lactic acid bacteria was measured using the GAM agar medium “Nissui”. The liquid dressing, the lightly-pickled vegetables, and the cooking vinegar to which licoricidin was not added were used as respective control groups, and the antimicrobial activity was evaluated in comparison with the number of lactic acid bacteria in the control group. The evaluation was performed using the same criterion as in Test Example 4.
(§1) • A: The bacterial count decreases to less than 10% of the bacterial count of the control group. • B: The bacterial count decreases to 10% or more and less than 50% of the bacterial count of the control group. • C: The bacterial count decreases to 50% or more and less than 100% of the bacterial count of control group. • D: The bacterial count is the same as the bacterial count of the control group.

[2] = tested on: Lactobacillus rennini DSM 17732; assay: Antimicrobial action of licoricidin in liquid seasoning (1), lactic acid bacteria B; type: cell-based; design: key: A: The bacterial count decreases to less than 10% of the bacterial count of the control group.; B: The bacterial count decreases to 10% or more and less than 50% of the bacterial count of the control group.; C: The bacterial count decreases to 50% or more and less than 100% of the bacterial count of control group.; D: The bacterial count is the same as the bacterial count of the control group
Procedure: Commercially available whole soybean soy sauce (produced by Kikkoman Corporation) was electrodialyzed and then concentrated under reduced pressure to obtain soy sauce at a salt concentration of 0% (w/v) and an alcohol concentration of 0% (v/v). Then, salt and/or alcohol was added to the above-mentioned obtained soy sauce, and the mixture was heat-treated to produce soy sauces at salt concentrations and alcohol concentrations shown in the following Table 5. The pHs of the soy sauces were 4.9 to 5.0. […]
Licoricidin (produced by ChemFaces) was added to each of the liquid seasonings produced in the above-mentioned (1) to concentrations of 1 ppm, 5 ppm, 10 ppm, 25 ppm, and 50 ppm. Lactic acid bacteria described in the following Table 9 were then added to 10^6 to 10^7 cells/mL and cultured at 30° C. for 7 days. After the culture, the number of lactic acid bacteria was measured using the GAM agar medium “Nissui”. Liquid seasoning to which licoricidin was not added was used as a control group, and the antimicrobial activity was evaluated in comparison with the number of lactic acid bacteria in the control group. The evaluation was performed using the criterion shown below.
as §1

COc1c(CC=C(C)C)c(O)cc2c1C[C@H](c1ccc(O)c(CC=C(C)C)c1O)CO2 [Licoricidin, 4-[(R)-7-hydroxy-5-methoxy-6-(3-methyl-2-butenyl)chroman-3-yl]-2-(3-methyl-2-butenyl)-1,3-benzenediol]
Antimicrobial activity ([1]; Cooking vinegar (salt 1.5% (w/v), alcohol 0% (v/v), pH 3.8), 30° C. 3 days, licoricidin 1 ppm): A (The bacterial count decreases to less than 10% of the bacterial count of the control group.)
Antimicrobial activity ([1]; Cooking vinegar (salt 1.5% (w/v), alcohol 0% (v/v), pH 3.8), 30° C. 3 days, licoricidin 5 ppm): A (The bacterial count decreases to less than 10% of the bacterial count of the control group.)
Antimicrobial activity ([1]; Cooking vinegar (salt 1.5% (w/v), alcohol 0% (v/v), pH 3.8), 30° C. 3 days, licoricidin 10 ppm): A (The bacterial count decreases to less than 10% of the bacterial count of the control group.)
Antimicrobial activity ([1]; Cooking vinegar (salt 1.5% (w/v), alcohol 0% (v/v), pH 3.8), 30° C. 3 days, licoricidin 25 ppm): A (The bacterial count decreases to less than 10% of the bacterial count of the control group.)
Antimicrobial activity ([1]; Cooking vinegar (salt 1.5% (w/v), alcohol 0% (v/v), pH 3.8), 30° C. 3 days, licoricidin 50 ppm): A (The bacterial count decreases to less than 10% of the bacterial count of the control group.)
Antimicrobial activity ([1]; Lightly-pickled vegetables (seasoning liquid salt 3.1% (w/v), alcohol 0.01% (v/v), pH 4.4), 30° C. 7 days, licoricidin 1 ppm): B (The bacterial count decreases to 10% or more and less than 50% of the bacterial count of the control group.)
Antimicrobial activity ([1]; Lightly-pickled vegetables (seasoning liquid salt 3.1% (w/v), alcohol 0.01% (v/v), pH 4.4), 30° C. 7 days, licoricidin 5 ppm): C (The bacterial count decreases to 50% or more and less than 100% of the bacterial count of control group.)
Antimicrobial activity ([1]; Lightly-pickled vegetables (seasoning liquid salt 3.1% (w/v), alcohol 0.01% (v/v), pH 4.4), 30° C. 7 days, licoricidin 10 ppm): A (The bacterial count decreases to less than 10% of the bacterial count of the control group.)
Antimicrobial activity ([1]; Lightly-pickled vegetables (seasoning liquid salt 3.1% (w/v), alcohol 0.01% (v/v), pH 4.4), 30° C. 7 days, licoricidin 25 ppm): A (The bacterial count decreases to less than 10% of the bacterial count of the control group.)
Antimicrobial activity ([1]; Lightly-pickled vegetables (seasoning liquid salt 3.1% (w/v), alcohol 0.01% (v/v), pH 4.4), 30° C. 7 days, licoricidin 50 ppm): A (The bacterial count decreases to less than 10% of the bacterial count of the control group.)
Antimicrobial activity ([1]; Liquid dressing (salt 2.6% (w/v), alcohol 0.8% (v/v), pH 4.2), 30° C. 7 days, licoricidin 1 ppm): A (The bacterial count decreases to less than 10% of the bacterial count of the control group.)
Antimicrobial activity ([1]; Liquid dressing (salt 2.6% (w/v), alcohol 0.8% (v/v), pH 4.2), 30° C. 7 days, licoricidin 5 ppm): A (The bacterial count decreases to less than 10% of the bacterial count of the control group.)
Antimicrobial activity ([1]; Liquid dressing (salt 2.6% (w/v), alcohol 0.8% (v/v), pH 4.2), 30° C. 7 days, licoricidin 10 ppm): A (The bacterial count decreases to less than 10% of the bacterial count of the control group.)
Antimicrobial activity ([1]; Liquid dressing (salt 2.6% (w/v), alcohol 0.8% (v/v), pH 4.2), 30° C. 7 days, licoricidin 25 ppm): A (The bacterial count decreases to less than 10% of the bacterial count of the control group.)
Antimicrobial activity ([1]; Liquid dressing (salt 2.6% (w/v), alcohol 0.8% (v/v), pH 4.2), 30° C. 7 days, licoricidin 50 ppm): A (The bacterial count decreases to less than 10% of the bacterial count of the control group.)
Antimicrobial activity ([2]; Bonito stock (salt 0.2% (w/v), alcohol 0.15% (v/v), pH 6.1), licoricidin 1 ppm): C (The bacterial count decreases to 50% or more and less than 100% of the bacterial count of control group.)
Antimicrobial activity ([2]; Bonito stock (salt 0.2% (w/v), alcohol 0.15% (v/v), pH 6.1), licoricidin 5 ppm): A (The bacterial count decreases to less than 10% of the bacterial count of the control group.)
Antimicrobial activity ([2]; Bonito stock (salt 0.2% (w/v), alcohol 0.15% (v/v), pH 6.1), licoricidin 10 ppm): A (The bacterial count decreases to less than 10% of the bacterial count of the control group.)
Antimicrobial activity ([2]; Bonito stock (salt 0.2% (w/v), alcohol 0.15% (v/v), pH 6.1), licoricidin 25 ppm): A (The bacterial count decreases to less than 10% of the bacterial count of the control group.)
Antimicrobial activity ([2]; Bonito stock (salt 0.2% (w/v), alcohol 0.15% (v/v), pH 6.1), licoricidin 50 ppm): A (The bacterial count decreases to less than 10% of the bacterial count of the control group.)
Antimicrobial activity ([2]; Japanese seasoned soup stock (salt 3% (w/v), alcohol 0.4% (v/v), pH 5.5), licoricidin 1 ppm): C (The bacterial count decreases to 50% or more and less than 100% of the bacterial count of control group.)
Antimicrobial activity ([2]; Japanese seasoned soup stock (salt 3% (w/v), alcohol 0.4% (v/v), pH 5.5), licoricidin 5 ppm): A (The bacterial count decreases to less than 10% of the bacterial count of the control group.)
Antimicrobial activity ([2]; Japanese seasoned soup stock (salt 3% (w/v), alcohol 0.4% (v/v), pH 5.5), licoricidin 10 ppm): A (The bacterial count decreases to less than 10% of the bacterial count of the control group.)
Antimicrobial activity ([2]; Japanese seasoned soup stock (salt 3% (w/v), alcohol 0.4% (v/v), pH 5.5), licoricidin 25 ppm): A (The bacterial count decreases to less than 10% of the bacterial count of the control group.)
Antimicrobial activity ([2]; Japanese seasoned soup stock (salt 3% (w/v), alcohol 0.4% (v/v), pH 5.5), licoricidin 50 ppm): A (The bacterial count decreases to less than 10% of the bacterial count of the control group.)
Antimicrobial activity ([2]; Sauce (salt 5.3% (w/v), alcohol 0.8% (v/v), pH 5.0), licoricidin 1 ppm): D
Antimicrobial activity ([2]; Sauce (salt 5.3% (w/v), alcohol 0.8% (v/v), pH 5.0), licoricidin 5 ppm): A (The bacterial count decreases to less than 10% of the bacterial count of the control group.)
Antimicrobial activity ([2]; Sauce (salt 5.3% (w/v), alcohol 0.8% (v/v), pH 5.0), licoricidin 10 ppm): A (The bacterial count decreases to less than 10% of the bacterial count of the control group.)
Antimicrobial activity ([2]; Sauce (salt 5.3% (w/v), alcohol 0.8% (v/v), pH 5.0), licoricidin 25 ppm): A (The bacterial count decreases to less than 10% of the bacterial count of the control group.)
Antimicrobial activity ([2]; Sauce (salt 5.3% (w/v), alcohol 0.8% (v/v), pH 5.0), licoricidin 50 ppm): A (The bacterial count decreases to less than 10% of the bacterial count of the control group.)
Antimicrobial activity ([2]; Soy sauce, salt 0% (w/v), alcohol 0% (v/v), licoricidin 1 ppm): B (The bacterial count decreases to 10% or more and less than 50% of the bacterial count of the control group.)
Antimicrobial activity ([2]; Soy sauce, salt 0% (w/v), alcohol 0% (v/v), licoricidin 5 ppm): B (The bacterial count decreases to 10% or more and less than 50% of the bacterial count of the control group.)
Antimicrobial activity ([2]; Soy sauce, salt 0% (w/v), alcohol 0% (v/v), licoricidin 10 ppm): B (The bacterial count decreases to 10% or more and less than 50% of the bacterial count of the control group.)
Antimicrobial activity ([2]; Soy sauce, salt 0% (w/v), alcohol 0% (v/v), licoricidin 25 ppm): A (The bacterial count decreases to less than 10% of the bacterial count of the control group.)
Antimicrobial activity ([2]; Soy sauce, salt 0% (w/v), alcohol 0% (v/v), licoricidin 50 ppm): A (The bacterial count decreases to less than 10% of the bacterial count of the control group.)
Antimicrobial activity ([2]; Soy sauce, salt 4% (w/v), alcohol 0% (v/v), licoricidin 1 ppm): B (The bacterial count decreases to 10% or more and less than 50% of the bacterial count of the control group.)
Antimicrobial activity ([2]; Soy sauce, salt 4% (w/v), alcohol 0% (v/v), licoricidin 5 ppm): A (The bacterial count decreases to less than 10% of the bacterial count of the control group.)
Antimicrobial activity ([2]; Soy sauce, salt 4% (w/v), alcohol 0% (v/v), licoricidin 10 ppm): A (The bacterial count decreases to less than 10% of the bacterial count of the control group.)
Antimicrobial activity ([2]; Soy sauce, salt 4% (w/v), alcohol 0% (v/v), licoricidin 25 ppm): A (The bacterial count decreases to less than 10% of the bacterial count of the control group.)
Antimicrobial activity ([2]; Soy sauce, salt 4% (w/v), alcohol 0% (v/v), licoricidin 50 ppm): A (The bacterial count decreases to less than 10% of the bacterial count of the control group.)
Antimicrobial activity ([2]; Soy sauce, salt 8% (w/v), alcohol 0% (v/v), licoricidin 1 ppm): C (The bacterial count decreases to 50% or more and less than 100% of the bacterial count of control group.)
Antimicrobial activity ([2]; Soy sauce, salt 8% (w/v), alcohol 0% (v/v), licoricidin 5 ppm): A (The bacterial count decreases to less than 10% of the bacterial count of the control group.)
Antimicrobial activity ([2]; Soy sauce, salt 8% (w/v), alcohol 0% (v/v), licoricidin 10 ppm): A (The bacterial count decreases to less than 10% of the bacterial count of the control group.)
Antimicrobial activity ([2]; Soy sauce, salt 8% (w/v), alcohol 0% (v/v), licoricidin 25 ppm): A (The bacterial count decreases to less than 10% of the bacterial count of the control group.)
Antimicrobial activity ([2]; Soy sauce, salt 8% (w/v), alcohol 0% (v/v), licoricidin 50 ppm): A (The bacterial count decreases to less than 10% of the bacterial count of the control group.)
Antimicrobial activity ([2]; Soy sauce, salt 12% (w/v), alcohol 0% (v/v), licoricidin 1 ppm): A (The bacterial count decreases to less than 10% of the bacterial count of the control group.)
Antimicrobial activity ([2]; Soy sauce, salt 12% (w/v), alcohol 0% (v/v), licoricidin 5 ppm): A (The bacterial count decreases to less than 10% of the bacterial count of the control group.)
Antimicrobial activity ([2]; Soy sauce, salt 12% (w/v), alcohol 0% (v/v), licoricidin 10 ppm): A (The bacterial count decreases to less than 10% of the bacterial count of the control group.)
Antimicrobial activity ([2]; Soy sauce, salt 12% (w/v), alcohol 0% (v/v), licoricidin 25 ppm): A (The bacterial count decreases to less than 10% of the bacterial count of the control group.)
Antimicrobial activity ([2]; Soy sauce, salt 12% (w/v), alcohol 0% (v/v), licoricidin 50 ppm): A (The bacterial count decreases to less than 10% of the bacterial count of the control group.)
